# Test results: patent US8298522B1, “Methods of modulating MUC1 expression to inhibit inflammation” (priority 2005, dated 2012)
# Some results were stated once for a whole list of compounds, not compound by compound.
# Test system: MUC1 protein in A549 cells
# Conditions: 1 hr pretreatment (5.0 μg/ml AcD or 10 μg/ml Chx), then 100 nM NE 24 hr
smiles,measurement,value
"C[C@@H]1C[C@@H]([C@H](O)CC2CC(=O)NC(=O)C2)C(=O)[C@@H](C)C1 [Chx, cycloheximide]",decrease of cellular MUC1 by pretreatment prior to NE treatment,greater than 95%
